Some entries share one result that the patent states for a list of compounds.
Legend:
[1] = test system: human peripheral blood mononuclear cells (PBMC); experiment: Cytokine Induction in Human Cells (interferon α and tumor necrosis factor α secreted into culture media); assay type: cell-based; settings: compounds generally tested at 30-0.014 μM, incubated 18 to 24 hours, ELISA of supernatant
[2] = test system: mouse macrophage cell line Raw 264.7; experiment: TNF-α Inhibition in Mouse Cells, Single Concentration Assay; assay type: cell-based; settings: Raw 264.7 cells stimulated by LPS; single concentration 5 μM or dose response, not stated which

Row | Structure (SMILES) | induction of production of interferon α and/or tumor necrosis factor α [1] | inhibition of production of tumor necrosis factor α (TNF-α) [2]
1 | Nc1nc2ccccc2c2c1nc1n2CCCN(C(=O)NC2CCCCC2)C1 [Example 288] | inducing the production of interferon α and/or tumor necrosis factor α | inhibiting production of tumor necrosis factor α (TNF-α)
2 | Nc1nc2ccccc2c2c1nc1n2CCCN(C(=O)CSc2ccccc2)C1.O=C(O)C(F)(F)F [Example 230] | inducing the production of interferon α and/or tumor necrosis factor α | inhibiting production of tumor necrosis factor α (TNF-α)
3 | Nc1nc2ccccc2c2c1nc1n2CCCN(C(=O)c2ccc(C(F)(F)F)cc2)C1.O=C(O)C(F)(F)F [Example 239] | inducing the production of interferon α and/or tumor necrosis factor α | inhibiting production of tumor necrosis factor α (TNF-α)
4 | COc1ccc(NC(=O)N2CCCn3c(nc4c(N)nc5ccccc5c43)C2)cc1 [Example 308] | inducing the production of interferon α and/or tumor necrosis factor α | inhibiting production of tumor necrosis factor α (TNF-α)
5 | Nc1nc2ccccc2c2c1nc1n2CCCN(C(=O)NCc2ccccc2)C1 [Example 289] | inducing the production of interferon α and/or tumor necrosis factor α | inhibiting production of tumor necrosis factor α (TNF-α)
6 | CC(C)NC(=O)N1CCCn2c(nc3c(N)nc4ccccc4c32)C1.O=C(O)C(F)(F)F [Example 283] | inducing the production of interferon α and/or tumor necrosis factor α | inhibiting production of tumor necrosis factor α (TNF-α)
7 | Nc1nc2ccccc2c2c1nc1n2CCCN(C(=O)c2cccc(Cl)c2)C1.O=C(O)C(F)(F)F [Example 217] | inducing the production of interferon α and/or tumor necrosis factor α | inhibiting production of tumor necrosis factor α (TNF-α)
8 | CC(C)C(=O)N1CCn2c(nc3c(N)nc4ccccc4c32)C1.O=C(O)C(F)(F)F [Example 74] | inducing the production of interferon α and/or tumor necrosis factor α | inhibiting production of tumor necrosis factor α (TNF-α)
9 | CN(C)c1ccc(NC(=O)N2CCn3c(nc4c(N)nc5ccccc5c43)C2)cc1 [Example 109] | inducing the production of interferon α and/or tumor necrosis factor α | inhibiting production of tumor necrosis factor α (TNF-α)
10 | CC(C)(C)NC(=O)N1CCCn2c(nc3c(N)nc4ccccc4c32)C1.O=C(O)C(F)(F)F [Example 285] | inducing the production of interferon α and/or tumor necrosis factor α | inhibiting production of tumor necrosis factor α (TNF-α)
11 | CSCCC(=O)N1CCCn2c(nc3c(N)nc4ccccc4c32)C1.O=C(O)C(F)(F)F [Example 200] | inducing the production of interferon α and/or tumor necrosis factor α | inhibiting production of tumor necrosis factor α (TNF-α)
12 | CC(C)NC(=O)N1CCn2c(nc3c(N)nc4ccccc4c32)C1 [Example 92] | inducing the production of interferon α and/or tumor necrosis factor α | inhibiting production of tumor necrosis factor α (TNF-α)
13 | Nc1nc2ccccc2c2c1nc1n2CCCN(C(=O)c2ccncc2)C1.O=C(O)C(F)(F)F [Example 223] | inducing the production of interferon α and/or tumor necrosis factor α | inhibiting production of tumor necrosis factor α (TNF-α)
14 | Nc1nc2ccccc2c2c1nc1n2CCN(C(=O)NC(=O)c2ccccc2)C1 [Example 103] | inducing the production of interferon α and/or tumor necrosis factor α | inhibiting production of tumor necrosis factor α (TNF-α)
15 | Cc1cccc(CNC(=O)N2CCCn3c(nc4c(N)nc5ccccc5c43)C2)c1 [Example 302] | inducing the production of interferon α and/or tumor necrosis factor α | inhibiting production of tumor necrosis factor α (TNF-α)
16 | Nc1nc2ccccc2c2c1nc1n2CCN(C(=O)c2ccc3ccccc3c2)C1 [Example 81] | inducing the production of interferon α and/or tumor necrosis factor α | inhibiting production of tumor necrosis factor α (TNF-α)
17 | Nc1nc2ccccc2c2c1nc1n2CCCN(C(=O)Nc2ccccc2)C1 [Example 287] | inducing the production of interferon α and/or tumor necrosis factor α | inhibiting production of tumor necrosis factor α (TNF-α)
18 | Nc1nc2ccccc2c2c1nc1n2CCN(C(=O)C=Cc2ccccc2)C1 [Example 79] | inducing the production of interferon α and/or tumor necrosis factor α | inhibiting production of tumor necrosis factor α (TNF-α)
19 | Nc1nc2ccccc2c2c1nc1n2CCCN(C(=O)c2ccccc2Cl)C1.O=C(O)C(F)(F)F [Example 216] | inducing the production of interferon α and/or tumor necrosis factor α | inhibiting production of tumor necrosis factor α (TNF-α)

From patent US7888349B2, “Piperazine, [1,4]Diazepane, [1,4]Diazocane, and [1,5]Diazocane fused imidazo ring compounds” (3M Innovative Properties Company, priority 2003, dated 2011)
